In all, about 52,000 sequences went through this assay and about 210 (0.4%) were called active.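 How the source made its calls: active means gene whose silencing raises cell survival under the drug, median off-target-corrected z-score across its silencing RNAs 2 or more; inactive means the rest.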 The list shows a part of the results.

A short description of this test: Resistance to Poly (ADP-Ribose) Polymerase inhibitor: Gene Identification via Genome-wide siRNA Screen. The conditions noted are these: mouse BRCA2 R2336H ES cells, olaparib, CellTiter-Glo viability; stronger effect = higher value. The text has this:
The role of Poly (ADP-Ribose) Polymerase (PARP) proteins in DNA repair has been elegantly utilized for the synthetic lethality-based treatment of BRCA-deficient tumors by PARP inhibitors. PARP inhibitors are now being used for treatment of BRCA-deficient breast and ovarian cancers. […] While several mechanisms of drug resistance have been identified, majority of these tumors develop drug resistance due to unknown causes. To identified novel regulators of chemo-resistance in BRCA2-mutated cells, we performed a genome wide siRNA library screen. We have found ES cells expressing a hypomorphic allele of BRCA2 to be hypersensitive to PAPP inhibitors (such as olaparib). We used ES cells expressing a mutant allele of BRCA2 that has a single amino acid substitution at position 2336 (arginine to histidine, R2336H). The screen was conducted using an Ambion (Thermo) Silencer Mouse Genome siRNA collection. The library targets 17,575 mouse genes with 3 siRNAs per gene. TET2 (E130014J05Rik) was identified as a top candidate.
Transfections were performed in 384 well plates (Corning 3707). Plates were coated with 0.1% gelatin in H2O overnight at ambient temperature. Gelatin solution was aspirated (BioTek EL406) and siRNAs were printed using a Bravo VPrep liquid handler integrated within a BioCel automation platform (Agilent). Cell viability was measured using CellTiter Glo (Promega). For transfections, […] of serum free media containing Lipofectamine RNAiMax […] was added to wells containing siRNA (0.8pmol). Lipid and siRNA were allowed to complex for 45 min at ambient temperature before addition of 1000 cells in DMEM, 30% FBS to yield final transfection mixtures containing 20 nM siRNA in DMEM, 15% FBS. PARPi (olaparib, AZD2281) was added 48 h post-transfection (500 nM) and viability (CellTiter Glo, Promega) was assayed 72 h later on a PerkinElmer Envision 2104 Multilabel plate reader. Ambion Silencer Select Negative Control #2 was incorporated on all screening plates (16 wells) and the median negative control value on each plate was used for normalization. An siRNA targeting Trp53 was used as a positive control. This control yielded a median protective effect of ~1.9 fold versus negative control throughout the screen. The median absolute deviation (MAD) based z-score was calculated for each siRNA. Genes were then ranked by taking the median value for all siRNAs tested against a given gene. Scores were also adjusted for seed-based off-target effects to help deprioritize likely false positives.
For the sequence GGACUUGUGAUUCAAGCAUTT against Rad23b, the z-score is inactive: -0.725.
In the case of CGGUGUUGGUAAAUGUCACTT against Olfr1427, the z-score was inactive: 1.93.
Then GCCAUCAAAAUCUCACAAGTT against Ate1, with inactive: 2.17.
In the case of “GGAAGGACAGUCUGCUCAUTT against 2310066E14Rik” it was inactive: 0.259.
Then GGUCUUGCUAUUUGUGAUATT against Olfr1294, with inactive: -0.143.
Regarding AACUGUACAUUGAAGCAGATT against Cstf3, the z-score is inactive: 0.0178.
Then GCUGUUUUGUCUCCAGCCCTT against Zbtb20, with inactive: -0.38; and GGGCAGUCAUAAAGAUACATT against Olfr131, with inactive: -0.703; and GGAUUUGAGAGCCAAUUGUTT against Abo, with inactive: 0.0406.
Then GGUUAUUUUUGAUGAGACCTT against Ascc2, with inactive: 1.23; and GGGCAUUUAGAAAUCUUGATT against Prkar2a, with inactive: 0.438.
As to “GCCGUAUGGAUGUAAAUUATT against D130040H23Rik”, the z-score was inactive: 0.279.
Consider “GGCUAUCCUCUUUUACCAUTT against 0610009O20Rik”, for which the z-score was inactive: 0.315.
With GUGCAGAUAUCUUUAGCAATT against Olfr159, the z-score is inactive: 0.0685.
Then GGAUGUGCACGAAGGACAGTT against Cdh2, with inactive: 0.305; and GGUGUUCAUUACUUUUGAGTT against Irak1bp1, with inactive: -0.28; and GCAACAAUCUGAGGACGACTT against Brunol4, with inactive: -0.545.
In the case of CCGUACAUAUGGUGAUCCATT against Rtn1 it was inactive: 0.133.
In the case of GGACACUUUCUCAUAUCAUTT against Abca9 it was inactive: 1.17; in that of GCGAUUCUGUAAAGAGCGCTT against Nme1, inactive: 0.441; in that of “GGCUAUGUUCACCUGUGGATT against 4933428M03Rik”, inactive: 0.212.
As to AGAGAGAUAUUGUUCAUCATT against BC050099, the z-score is inactive: 0.604.
Then “CCCUAUCCAUUCAUGGCACTT against 3322402L07Rik”, with inactive: 1.22; and GGAAGCUUCGAAAGUUUAUTT against Cklfsf2b, with inactive: -0.498; and CCCAUUAAGGUAUAAUAUCTT against Olfr855, with inactive: 1.06.
For the sequence “GGCUACUAUACUGUUGAAGTT against 2010110O04Rik”, the z-score is inactive: -0.108.
Then GGUCAUCAUGUCCAUCCGATT against Rpl10, with inactive: -3.01; and “GGUUUACCUUUAUGCAACATT against 2410004F06Rik”, with inactive: 0.183; and GGACAUUGAAGCCAUGGAUTT against Nsf, with inactive: -1.48.
Then GCCAUCAUGCUUUCAUGACTT against Bzrp, with inactive: -0.611; and “GGUGGAGUGAUACGAAGAGTT against D330045A20Rik”, with inactive: -2.75.
Take GGUGAUGAAAGGGAAUGGCTT against Rnf25: the z-score was inactive: 0.189.
Then “CCCGAAGCCUUAGAUAUAATT against 9930017A07Rik”, with inactive: -1.37.
Take GGCACAACAACUUGAAUGGTT against Man2c1: the z-score was inactive: -0.157.
As to GGAGCUGAUGGAAGAGAUCTT against Speer4f, the z-score was inactive: 1.01.
Then “GCCUUUUCAUUGCACCUCCTT against 2810404F18Rik”, with inactive: 0.00101.
With CGUUCUUAUUACAUCUGAUTT against Mosg, the z-score was inactive: 0.811.
Then GCAAGUCACGAAAGAAGAGTT against Ttll4, with inactive: -2.46; and GGACUCAUGAAAUCAUACCTT against Spry1, with inactive: 0.261; and GCGUGAAGACAACAAGCAGTT against Myo1c, with inactive: 0.693.
Then GGGAACUACAAGCAUCCAGTT against Adm, with inactive: -0.51.
Then GGAUUUGUUACGGUAGUUUTT against Slc30a9, with inactive: -0.00918; and GCUACGCUAUUUUUGGCUUTT against Micl, with inactive: -0.0914.
For the sequence GUUUUUGCUAUGGCUCGUATT against Hist1h3a, the z-score is inactive: -1.86.
In the case of “GCCAGAAUGGAGUUACACCTT against 1110036H21Rik” it was inactive: 0.568; in that of GGGUAGGAUUCCAGAACAUTT against Arid2, inactive: -2.19.
Then CCGCUAAACUUCCAUAACCTT against Rnf123, with inactive: 0.854; and GGCUCAGAUUCUCAACAGATT against Emx2, with inactive: -0.074.
Then GGACUUGAGAGCAUUUGUGTT against Procr, with inactive: 0.302.
As to GGUAGCACAUAGUCUAAAATT against MGC58382, the z-score was inactive: -0.19.
In the case of CGUUAUAAUGCAUACUGUUTT against Fbn1 it was inactive: 1.18; in that of GCCGAUUACUAUCCCGAGATT against Rasgef1c, inactive: 2.38; in that of GGCUUAUAAAAUUCGGUCATT against Olig1, inactive: 0.127.
Take GGAAGAGUCAAUUUUGAUGTT against Gfpt1: the z-score is inactive: 1.62.
In the case of GGAUAGAGAUUCCAAACAUTT against Lgr8 it was inactive: 1.36; in that of GGAUUCAUCACUGACUACATT against Ddc, inactive: 0.288.
In the case of CCACGUGGUUAUCUAUUAUTT against MGC38735 it was inactive: -2.1; in that of “GGAGGAGCAGAUAGACUCATT against 3100002P13Rik”, inactive: -1.36.
In the case of “CCCGUAUCUUUUUAGCUAATT against A630038E17Rik” it was inactive: 0.453; in that of GGAAAACUUCCAUAAAGAGTT against Bin1, inactive: 0.0422; in that of “GGAAAUUGGCAUCACGUUGTT against 2700067D09Rik”, inactive: 0.606.
For CGCAGAGAAGGACUAUCUUTT against Ush1c, the z-score was inactive: -0.07.
Regarding GGUUAUUGUUGAGAAUCCUTT against Gpkow, the z-score was inactive: 1.27.
In the case of GGACAAUGCCCUGUAUCAGTT against Clic3 it was inactive: -0.462; in that of GGAGACAUCAAGAGUUCUGTT against H2-M10.1, inactive: 0.545; in that of GCAAUUGGUAAAGAUGAAATT against Sly, inactive: -0.297.
On to “GGCACAUCUCCCUAACACUTT against 2610528K11Rik”, for which the z-score was inactive: 0.06.
Then UCACAAGUACAGAUCUGAATT against LOC432736, with inactive: 0.297.
For GGUCCUAUGGAUUAAUGCUTT against Wisp1, the z-score is inactive: 1.7.
In the case of GGAGCAGAAGUCAAUCAGGTT against Myo1b it was inactive: 0.0119; in that of GGGAAAAUGCCAAGUGGAATT against Med8, inactive: 0.0539.
In the case of GCCCAGAAUGCUCACUAAATT against Sln it was inactive: 0.656; in that of AACAGCAUCUUUGUGGUCCTT against Ins1, inactive: -0.451; in that of GGCUUAAGCAGACGUGUCATT against Lhx8, inactive: -0.198.
“GGUAUGUAACUUCUUCAUUTT against 6430527G18Rik”: the z-score was inactive: 0.0592.
Then GGUUUUCCCAUGAAGCAAGTT against Rps6, with inactive: -2.82; and “GAAGAUUCUCCAUUGUUUGTT against 1110031B11Rik”, with inactive: -0.268.
In the case of GGCACAAAGCAAGAUUACCTT against Cebpz it was inactive: -1.8.
In the case of GGUGUGACACCUAAGAUGATT against AW212607 it was inactive: 1.39; in that of GGGCAACUUUUUGAUAUUCTT against Btbd14a, inactive: -0.496.
Turning to GGCCUAUGUACCCUACCAATT against Enpp1, the z-score is inactive: -0.811.
In the case of GGGAAGUUGUCAAUACCUGTT against Sra1 it was inactive: 1.02.
In the case of GCCUCAACCUGAUUAUCACTT against Enpp7 it was inactive: 1.83; in that of GAAAUAUUUCUCAUCCUUGTT against Upk1b, inactive: 0.93; in that of GGCAACCAGAUAUUUGUUATT against Myef2, inactive: -0.593.
In the case of GGAUGCUUUACCAAUGGUUTT against Mbtps2, the z-score is inactive: -0.873.
Then GGUACAAAGAUGGUUGCGATT against AU016977, with inactive: -1.36; and GCCCGAUUAAAAUAAAUUGTT against Arih2, with inactive: 0.862; and CAUUUCGCCCUGGAUAGUGTT against Olfr523, with inactive: 1.99.
In the case of “GGAGAUGCAUACCAAAGAUTT against 1700019I23Rik” it was inactive: -0.86.
Then GGACUUGGAGAGCAAAAGCTT against Tmem16b, with inactive: -0.46; and GCUAUGUUCUUGGAUGAUUTT against V1ra4, with inactive: 0.131.
Regarding CCAGCUAAUUACUCAGCCUTT against Lyzl4, the z-score was inactive: 0.324.
Consider GCAAAUUGUAUUAUAGAGCTT against Foxo1, for which the z-score is inactive: 0.777.
In the case of GGAGUUUGUGUUCCUGACGTT against Chst10 it was inactive: -2.44; in that of “GGCUGGACCAAAUUUGGUATT against MGI:1915703”, inactive: 0.75; in that of GGUCCUGCUUCGUUAUCAGTT against Aldh6a1, inactive: -0.297.
Then GGAGUACGAGAAGAGCUCUTT against Kcnq2, with inactive: 1.34; and GGGAGGACACUAUUUGAUUTT against Slco2b1, with inactive: 0.868; and GCACUGUGGUCCAUACUACTT against Olfr1002, with inactive: -0.575.
“GGCCAUGAAAUGAAUUUCUTT against 2410141K09Rik”: the z-score was inactive: -0.0342.
In the case of GCACCGUUGAAGUCAAGGUTT against Tdrd6 it was inactive: -0.87; in that of GGAGUUCAUCCUCACAGAUTT against Vdr, inactive: -0.395.
Then GCUGAAAUCCAGGAUAGAGTT against Zw10, with inactive: 0.0178.

The values are drawn from PubChem BioAssay AID1347423 (Functional Genomics Laboratory (NCATS/FGL), 2020).
